Experiment: solution-phase peptide synthesis; Fmoc-PAL-PEG-PS; HATU/DIEA
Settings: cyclisation step, on linear precursor

Question: With cyclic-ITDGEA (PRGGSK; cyclic) as the substance, how does the cyclisation yield read?
Answer: Its cyclisation yield is 45%.

Reference: US20040037775A1 (priority 2000, published 2004)
